# Reference: PubChem BioAssay AID1259308 (NCATS, 2017)
# Aim: 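Candidate targets for better recombinant protein yield in mammalian cells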 (primary screen)
# System: human HEK293 embryonic kidney cells stably expressing firefly luciferase (HEK-CMV-Luc2-Hygro)
# Reagent: single siRNA against human genes, 0.8 pmol siRNA per well
# Time to read-out: 72 h
# Detection: 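Reporter luminescence and viable-cell signal on separate replicate plates, given as percent of non-targeting control and median/MAD z-scores, plus per-cell luciferase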
# Direction: total luciferase, z-score and total luciferase, % of control: higher = more reporter protein produced; luciferase per cell, z-score: higher = more reporter output per viable cell
# Call rule: 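An siRNA counts as active if its total luciferase robust z-score exceeds 3; genes with two or more such siRNAs out of three were retested with fresh siRNAs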
# Meaning of the calls: active = raised luciferase; inactive = no rise
# In all, the deposit lists about 59,000 reagents; shown is a random part of them. About 1,510 of them (2.6%) were called active. 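Calls use total luciferase alone and ignore viability, so some active siRNAs may act by altering cell number.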 A number with no mark means an inactive call. The numbers tell different reagents against one gene apart. Not all columns of the deposit are shown.
gene,reagent,"total luciferase, z-score","total luciferase, % of control","luciferase per cell, z-score"
CLEC2L,1,2.22,126,1.29
CLEC2L,2,-0.666,68.6,0.0239
CLEC2L,3,0.525,92.3,0.45
KLK14,1,-0.108,79.7,-0.25
KLK14,2,-0.208,77.7,-0.304
KLK14,3,0.345,88.8,0.851
CCAR1,1,0.475,91.3,0.428
CCAR1,2,-0.278,76.4,0.0796
CCAR1,3,-1.29,56.2,-1.05
APOBEC3D,1,-1.07,60.6,-0.952
APOBEC3D,2,-1.33,55.5,-1.14
APOBEC3D,3,0.0605,83.1,0.175
PPP2R2C,1,-0.252,76.9,0.273
PPP2R2C,2,-0.669,68.6,-1.77
PPP2R2C,3,0.534,92.5,0.176
PSMB7,1,0.562,93.1,0.508
PSMB7,2,0.287,87.6,0.884
PSMB7,3,-0.888,64.2,0.676
RPL7L1P5,1,1.08,103,0.84
RPL7L1P5,2,0.623,94.3,-0.815
RPL7L1P5,3,0.163,85.1,0.366
SLC25A21,1,-0.355,74.8,-0.42
SLC25A21,2,-1.53,51.4,-0.992
SLC25A21,3,1.98,121,1.49

Ordered by “luciferase per cell, z-score” (high to low): some entries from above
gene,reagent,"total luciferase, z-score","total luciferase, % of control","luciferase per cell, z-score"
RPL7L1P5,1,1.08,103,0.84
RPL7L1P5,2,0.623,94.3,-0.815
